Common to all, as to details: yeast three-hybrid, YBZ-1, SC-Leu-His + 0.5 mM 3-AT, 4 days
Assay [1] concerns the target T1, PUM1 PUF domain R3-RIY C935R + R936I + Q939Y (UniProt Q14671).
T1 sequence: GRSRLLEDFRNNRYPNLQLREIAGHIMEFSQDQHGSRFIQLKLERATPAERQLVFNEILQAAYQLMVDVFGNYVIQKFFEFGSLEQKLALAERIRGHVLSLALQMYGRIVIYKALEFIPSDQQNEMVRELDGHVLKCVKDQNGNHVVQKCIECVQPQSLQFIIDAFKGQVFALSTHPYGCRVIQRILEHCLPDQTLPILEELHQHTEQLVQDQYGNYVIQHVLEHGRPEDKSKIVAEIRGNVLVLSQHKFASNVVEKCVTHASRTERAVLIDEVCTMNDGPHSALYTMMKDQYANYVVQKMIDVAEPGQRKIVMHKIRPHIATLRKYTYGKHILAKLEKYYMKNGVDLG

For assay [2], the target named is T2, PUM1 PUF domain R3-RMK C935R + R936M + Q939K (UniProt Q14671).
T2 sequence: T1 sequence with I109M, Y112K

The target in assay [3] is T3, PUM1 PUF domain R3-RQW C935R + R936Q + Q939W (UniProt Q14671).
T3 sequence: T1 sequence with I109Q, Y112W

The target in assay [4] is T4, PUM1 PUF domain R3-RRM C935R + Q939M (UniProt Q14671).
T4 sequence: T1 sequence with I109R, Y112M

Assay [5] addresses T5, PUM1 PUF domain R3-RSD C935R + R936S + Q939D (UniProt Q14671).
T5 sequence: T1 sequence with I109S, Y112D

The target in assay [6] is T6, PUM1 PUF domain R3-RSF C935R + R936S + Q939F (UniProt Q14671).
T6 sequence: T1 sequence with I109S, Y112F

Assay [7] addresses T7, PUM1 PUF domain R3-RSQ C935R + R936S (UniProt Q14671).
T7 sequence: T1 sequence with I109S, Y112Q

For assay [8], the target named is T8, PUM1 PUF domain R3-RSW C935R + R936S + Q939W (UniProt Q14671).
T8 sequence: T1 sequence with I109S, Y112W

Assay [9] concerns the target T9, PUM1 PUF domain R3-RTF C935R + R936T + Q939F (UniProt Q14671).
T9 sequence: T1 sequence with I109T, Y112F

Assay [10] concerns the target T10, PUM1 PUF domain R3-RTW C935R + R936T + Q939W (UniProt Q14671).
T10 sequence: T1 sequence with I109T, Y112W

The target of assay [11] is T11, PUM1 PUF domain R3-RVN C935R + R936V + Q939N (UniProt Q14671).
T11 sequence: T1 sequence with I109V, Y112N

Assay [12] deals with T12, PUM1 PUF domain R3-SEE C935S + R936E + Q939E (UniProt Q14671).
T12 sequence: T1 sequence with R108S, I109E, Y112E

In assay [13] the target is T13, PUM1 PUF domain R3-SIR C935S + R936I + Q939R (UniProt Q14671).
T13 sequence: T1 sequence with R108S, Y112R

For assay [14], the target named is T14, PUM1 PUF domain R3-SLE C935S + R936L + Q939E (UniProt Q14671).
T14 sequence: T1 sequence with R108S, I109L, Y112E

Assay [15] addresses T15, PUM1 PUF domain R3-SSK C935S + R936S + Q939K (UniProt Q14671).
T15 sequence: T1 sequence with R108S, I109S, Y112K

The target of assay [16] is T16, PUM1 PUF domain R3-WCA C935W + R936C + Q939A (UniProt Q14671).
T16 sequence: T1 sequence with R108W, I109C, Y112A

The target of assay [17] is T17, PUM1 PUF domain R3-YCD C935Y + R936C + Q939D (UniProt Q14671).
T17 sequence: T1 sequence with R108Y, I109C, Y112D

The target of assay [18] is T18, PUM1 PUF domain R3-YCV C935Y + R936C + Q939V (UniProt Q14671).
T18 sequence: T1 sequence with R108Y, I109C, Y112V

Assay [19] concerns the target T19, PUM1 PUF domain R4-SMR N971S + H972M + Q975R (UniProt Q14671).
T19 sequence: T1 sequence with R108C, I109R, Y112Q, N144S, H145M, Q148R

Assay [20] addresses T20, PUM1 PUF domain R4-VYG N971V + H972Y + Q975G (UniProt Q14671).
T20 sequence: T1 sequence with R108C, I109R, Y112Q, N144V, H145Y, Q148G

Numbering of substitutions follows the chain as printed. The list shows a part of the results. At the low end of the ranking, values are background and their order means little.

The record followed here is article PMC8384837.

As to “GGCUAGAACUAGUGGAUCCCCCGGCGCCCGGCGGCUCGAGCCCGGGUAAGUGUAAAUAGUCUGCAUGCCGCCGGGCGCCAUGCCUGCAGGUCGACUCUAGAAAACAUG”, the binding signal (log2 enrichment (interaction score)) is less than -7.12 in assay [1]; less than -6.25 in assay [2]; less than -7.65 in [3]; less than -6.89 in [4]; less than -8.33 in assay [5]; less than -7.45 in assay [6]. Also, the binding signal (log2 enrichment (interaction score)) is less than -6.63 in [7]; less than -9.22 in [8]; less than -7.22 in assay [9]; less than -8.22 in assay [10]; less than -6.43 in assay [11]; less than -8.17 in assay [12]. The binding signal (log2 enrichment (interaction score)) in [13] was less than -8.19; in assay [14], less than -7.54; in assay [15], less than -7.8; in assay [16] it was less than -7.76; in assay [17], less than -7.28; in assay [18], less than -8.18. Also, the binding signal (log2 enrichment (interaction score)) was -5.91 in assay [19] and -5.26 in [20].
